A short description of this test: qHTS Assay for Modulators of Lamin A Splicing. The following applies: HeLa LMNA splicing GFP/RFP minigene ratio, 48 h. A digest of the protocol:
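S3 HeLa cells stably expressing lamin A-EGFP splicing minigene plus DsRed2, 600 cells/well, 48 h compound exposure at 37C. Laser-scanning cytometry; analysed as GFP (500-530 nm)/RFP (575-640 nm) total intensity ratio; 0.5% DMSO vehicle.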

Setting [1] is: measured here: GFP splicing reporter channel.
The mark [2] stands for this setting: measured here: RFP viability control channel.

Values joined by “and” are separate entries in the source; they are usually repeats but may differ in a detail not shown here. Equal values may be shown once. The list shows a part of the results. Shown are side measurements of this screen, not its main read-out; they come without a call. Most of these compounds were active or inconclusive in the main read-out, so they are no random draw. Potencies come from curve fits of mixed quality, noted in brackets.

Here are results for 50 compounds from PubChem BioAssay AID1487 (National Center for Advancing Translational Sciences (NCATS), 2009).

Broadly, the AC50 is the concentration giving half of the maximal activity seen. On to `Fc1ccc2nc3n(c2c1F)CCCCCC3`, for which the concentration at half-maximal activity (AC50) under setting [1] is 0.398 µM [rising, full curve, poor fit].
Consider `CCCCCn1c(=NC(C)=O)c(C#N)cc2c(=O)n3ccccc3nc21`, for which the AC50 under setting [2] is 3.98 µM [falling, partial curve, poor fit].
With `Cc1ccc(Nc2n[nH]c(C)c2[N+](=O)[O-])c(C)c1`, the half-maximal activity concentration (AC50) was 6.31 µM [rising, partial curve] under setting [1] and 2 µM [rising, full curve] under setting [2].
For `O=C1N(CCCN2C(=O)C3(OCCO3)c3ccccc32)c2ccccc2C12OCCO2`, the AC50 was 14.1 µM [rising, single point] under setting [1] and 4.47 µM [rising, partial curve] under setting [2].
As for `COc1ccccc1NS(=O)(=O)c1cccc(C(=O)N/N=C/c2c(C)nn(-c3ccccc3)c2N2CCCC2)c1`, the AC50 was 12.6 µM [rising, single point] under setting [1] and 20 µM [rising, single point] under setting [2].
In the case of `CCOC(=O)c1c(C)oc2ncnc(Nc3ccc(F)cc3Cl)c12`, the AC50 is 1.26 µM [falling, full curve, poor fit] under setting [1] and 0.631 µM [falling, full curve] under setting [2].
`Cc1cc(C)c(S(=O)(=O)NCc2ccncc2)c(C)c1`: the AC50 by setting is: under setting [1], 0.355 µM [rising, full curve]; under setting [2], 2.24 µM [rising, full curve].
With `CCOC(=O)C/C(C)=N\Nc1ccc([N+](=O)[O-])cc1[N+](=O)[O-]`, the AC50 under setting [2] was 12.6 µM [falling, partial curve, poor fit].
`Cc1ccc(OCC(=O)Nc2ccc(Cl)c(-c3nc4ncccc4o3)c2)cc1C`: the half-maximal activity concentration (AC50) under setting [1] is 1 µM [falling, partial curve, poor fit] and the AC50 under setting [2] was 17.8 µM [falling, partial curve, poor fit].
With `O=C(CSc1nnnn1C1CCCCC1)Nc1cccc(NC(=O)c2ccco2)c1`, the AC50 under setting [2] is 1.78 µM [rising, single point].
On to `COc1cc(SC)ccc1C(=O)N1CCCCCC1`, for which the AC50 under setting [2] was 35.5 µM [rising, single point].
`O=C(COC(=O)C1(c2ccc(Cl)cc2)CCCC1)N1CCc2ccccc21`: the half-maximal activity concentration (AC50) under setting [1] was 11.2 µM [rising, single point] and the AC50 under setting [2] was 35.5 µM [rising, single point].
As to `CCOc1ccc(NC(=S)N=Nc2c(O)[nH]c3ccccc23)cc1`, the AC50 runs as follows: under setting [1], 14.1 µM [falling, single point]; under setting [2], 4.47 µM [rising, partial curve].
With `Cn1nnnc1SCCCNCc1ccc(-c2ccc(Br)cc2)o1`, the AC50 is, setting by setting: under setting [1], 0.251 µM [falling, partial curve, poor fit]; under setting [2], 0.0562 µM [falling, full curve, poor fit].
Consider `C=CCNC(=O)N1CCc2nc(-c3ccc(OC)cc3C)c3c(c2C1)CO[C@@H](c1ccccc1)C3`, for which the concentration at half-maximal activity (AC50) under setting [1] was 5.62 µM [rising, single point] and the half-maximal activity concentration (AC50) under setting [2] was 0.631 µM [falling, partial curve, poor fit].
For the compound `Cc1nnnn1/C(=C\c1ccccc1)C(=O)OCC(=O)NC(C)(C)C`, under setting [2], the AC50 was 11.2 µM [rising, partial curve].
Still for that read-out and setting: with `Cc1ccc(NC(=O)c2oc3ccccc3c2NC(=O)C2CCCO2)cc1C` (centres undefined) the figure was 20 µM [rising, partial curve, poor fit].
Consider `CCn1c(=N)c(C(=O)NC)cc2c(=O)n3cccc(C)c3nc21`, for which the half-maximal activity concentration (AC50) under setting [1] is 0.0447 µM [falling, full curve, poor fit].
For `O=C(Nc1cccnc1)C1CCCN1S(=O)(=O)c1ccc(Cl)c(Cl)c1` (centres undefined), the AC50 is, setting by setting: under setting [1], 22.4 µM [rising, single point]; under setting [2], 31.6 µM [rising, single point].
In the case of `CCN(CC)CCCNC(=O)c1cc2c(Cl)nc3ccccc3c2s1`, the half-maximal activity concentration (AC50) under setting [2] is 12.6 µM [rising, single point].
On to `C[C@@H]1CCN(C(=O)[C@H](CCCNC(=N)N)NS(=O)(=O)c2cccc3c2NC[C@H](C)C3)[C@@H](C(=O)O)C1`, for which the concentration at half-maximal activity (AC50) is 35.5 µM [falling, single point] under setting [1] and 35.5 µM [falling, single point] under setting [2].
In the case of `COc1ccc(Br)cc1CNC(=O)CCNC(=O)Cn1ccc2ccccc2c1=O`, under setting [1], the AC50 is 3.98 µM [falling, partial curve, poor fit].
Regarding `C=CCn1c(SCC(=O)Nc2cccnc2Cl)nnc1-c1ccc(C(C)(C)C)cc1`, the concentration at half-maximal activity (AC50) under setting [2] was 20 µM [rising, partial curve].
As for `Cc1ccc(C(=O)CSc2nnc(-c3ccccc3N)n2C)cc1C`, the AC50 is, setting by setting: under setting [1], 20 µM [rising, single point]; under setting [2], 22.4 µM [rising, partial curve].
`Cc1cccc(OCC(=O)N/N=C/c2ccc3c(c2)OCO3)c1`: the concentration at half-maximal activity (AC50) was 35.5 µM [rising, single point] under setting [1] and 25.1 µM [rising, single point] under setting [2].
For the compound `COc1ccc(/C=C/C(=O)c2ccc(O)cc2)cc1COc1ccc(F)cc1`, the concentration at half-maximal activity (AC50) under setting [1] is 35.5 µM [falling, single point].
For `COc1ccccc1/C=C/C=N/n1c(-c2ccc(C)cc2)n[nH]c1=S`, the AC50 is 31.6 µM [rising, single point] under setting [1] and 14.1 µM [rising, single point] under setting [2].
`CCn1c(COc2ccc3c(c2)CCCC3)nnc1SCC(=O)Nc1ccc(C(=O)OC)cc1`: under setting [1], the concentration at half-maximal activity (AC50) is 12.6 µM [falling, partial curve, poor fit].
As to `OCCN(CCO)c1nc(N2CCCCC2)c2nc(N(CCO)CCO)nc(N3CCCCC3)c2n1`, the concentration at half-maximal activity (AC50) was 3.55 µM [falling, partial curve, poor fit] and 10 µM [rising, partial curve] under setting [1]; 2.24 µM [falling, partial curve] and 3.98 nM [rising, full curve, poor fit] and 15.8 µM [rising, partial curve, poor fit] under setting [2].
In the case of `Cc1ccc(C2CC(=O)C(C=NCCN3CCN(CC(=O)Nc4cc(C)cc(C)c4)CC3)=C(O)C2)cc1` (centres undefined), the AC50 is 11.2 µM [rising, partial curve, poor fit] under setting [1] and 31.6 µM [rising, single point] under setting [2].
Regarding `O=C(CNC(c1ccccc1)c1ccccc1)Nc1cc([N+](=O)[O-])ccc1Cl`, the half-maximal activity concentration (AC50) is 31.6 µM [rising, single point] under setting [1] and 31.6 µM [rising, single point] under setting [2].
Consider `COC(=O)N/N=C(\C)c1ccc(-n2ccnc2)cc1`, for which the concentration at half-maximal activity (AC50) was 3.16 µM [falling, single point] under setting [1] and 3.55 µM [falling, full curve, poor fit] under setting [2].
Turning to `Cc1cccc(C)c1-n1nnnc1S(=O)(=O)Cc1ccccc1Cl`, the AC50 by setting is: under setting [1], 12.6 µM [rising, single point]; under setting [2], 31.6 µM [rising, single point].
For the compound `CCn1c(SCC(=O)Nc2nc3ccc(OC)cc3s2)nc2c1c(=O)n(C)c(=O)n2C`, under setting [1], the AC50 was 17.8 µM [rising, partial curve].
On to `CCC1CN(C(=O)N2CCC(C(=O)NCCCc3ccccc3)CC2)c2cc(C)ccc2O1` (centres undefined), for which the AC50 under setting [2] was 0.178 µM [falling, full curve, poor fit].
Take `CC(=O)Nc1ccccc1C(=O)C(=O)Nc1cccc(C(=O)NCc2ccc(C)cc2)c1`: the AC50 under setting [2] is 0.398 µM [rising, full curve, poor fit].
`COc1ccc(S(=O)(=O)N(CC(=O)Nc2ccc(S(=O)(=O)N3CCOCC3)cc2)Cc2ccc(F)cc2)cc1`: the AC50 under setting [2] was 11.2 µM [rising, single point].
Consider `O=C(CCCc1ccccc1)NCc1ccc(F)cc1`, for which the concentration at half-maximal activity (AC50) runs as follows: under setting [1], 3.55 µM [rising, full curve, poor fit]; under setting [2], 3.55 µM [rising, full curve, poor fit].
Consider `CCOC(=O)c1ccc(NC(=O)CN2C(=O)C(C)(C)c3ccccc32)cc1`, for which the AC50 is 35.5 µM [falling, partial curve] under setting [1] and 7.94 µM [falling, full curve] under setting [2].
In the case of `Cc1ccc(C)c(NC(=O)c2cnn(-c3ccc(F)cc3F)c2C2CCNCC2)c1`, the AC50 under setting [1] is 0.794 µM [falling, full curve, poor fit].
In the case of `O=C(NC1CC1)c1ccc2c(c1)C1C3CCC(C3)C1C(c1ccccc1)N2` (centres undefined), the concentration at half-maximal activity (AC50) under setting [2] was 17.8 µM [rising, single point].
Consider `Cc1ncc(C[n+]2csc(CCOP(=O)(O)OP(=O)(O)O)c2C)c(N)n1`, for which the AC50 is, setting by setting: under setting [1], 17.8 µM [falling, single point]; under setting [2], 2.82 µM [falling, single point].
For `Cn1c(=O)c2nc(NCc3ccccc3)cnc2n(C)c1=O`, the concentration at half-maximal activity (AC50) under setting [2] is 17.8 µM [rising, partial curve, poor fit].
`O=C(O)c1ccc(CSc2nnc(SCc3ccccc3)s2)cc1`: the AC50 under setting [2] was 35.5 µM [rising, single point].
As to `COc1ccc(N2CCN(C(=O)c3ccc(N4C(=O)NC5CC4(C)Oc4ccccc45)cc3)CC2)cc1` (centres undefined), the AC50 under setting [2] is 12.6 µM [rising, single point].
Take `Nc1nc(NC(=O)c2ccccc2)nn1-c1ccccc1`: the half-maximal activity concentration (AC50) under setting [2] was 0.562 µM [falling, full curve, poor fit].
Take `Cc1cc(O)c(C(c2ccccc2)N2CCC(C)CC2)c(=O)n1Cc1ccco1` (centres undefined): the AC50 under setting [2] was 4.47 µM [falling, single point].
Turning to `Cc1cccc(OCC(=O)Nc2ccc(S(=O)(=O)N3CCCC3)cc2)c1`, the AC50 under setting [2] was 11.2 µM [rising, partial curve].
As to `CC(=O)c1ccc(NC(=O)CSc2nnc3ccc(-c4ccc(F)cc4)nn23)cc1`, the AC50 under setting [1] was 0.562 µM [rising, full curve, poor fit].
In the case of `Cc1ccc([N+](=O)[O-])cc1-c1ccc(/C=N\n2nnnc2N)o1`, the AC50 is, setting by setting: under setting [1], 4.47 µM [falling, partial curve]; under setting [2], 7.08 µM [falling, full curve].
